PubChem BioAssay AID1224826, NIAID, 2016
Aim: 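Regulators of Tlr4 signalling leading to Tnf-alpha expression in macrophages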 (primary screen). Cell system: RAW264.7 G9 macrophages from mouse bearing reporters for p65 (GFP) and the Tnf promoter (mCherry). Knock-down reagent: siRNA pool against mouse genes, 100 nM. Timing: 16 h of LPS stimulation, after 2 days of siRNA transfection. Challenge: bacterial lipopolysaccharide (Salmonella minnesota R595), 10 ng/ml. Measured: 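Imaged Tnf reporter mCherry in nuclei, minus background, normalised per plate to the median and expressed as robust z-scores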. Direction: Tnf reporter robust z-score: higher = stronger Tnf promoter reporter signal after LPS. Rule for the call: 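Called active when robust z-score is at most -1.3, matching the median of the Tlr4 knock-down control, or over 3; control wells and wells with under 50 cells never active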. Meaning of the calls: active = Tnf reporter clearly lowered or raised; inactive = no clear change in Tnf reporter.
The deposit covers about 17,000 reagents; below is an unselected part. About 1,110 of all reagents (6.6%) count as active. 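Active means lowered or raised reporter signal; replicate intensities are raw and not normalised per plate.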 Further read-outs or replicates are left out here.

Depletion of 5930422O12Rik resulted in: Tnf reporter robust z-score -0.04; fewer than 50 cells in well enough cells in well; inactive.
With knock-down of Zp1, the record shows Tnf reporter robust z-score 1.69; fewer than 50 cells in well enough cells in well; inactive.
For Ppp1r10, the values are Tnf reporter robust z-score -1.03; fewer than 50 cells in well enough cells in well; inactive.
Samd11 scored Tnf reporter robust z-score -0.66; fewer than 50 cells in well enough cells in well; inactive.
Pag1 scored Tnf reporter robust z-score -0.95; fewer than 50 cells in well enough cells in well; inactive.
Chmp4b showed fewer than 50 cells in well fewer than 50 cells per well; well left out of calls; inactive.
Depletion of Tas2r119 resulted in: Tnf reporter robust z-score 0.06; fewer than 50 cells in well enough cells in well; inactive.
Against Arpc5l, the values are Tnf reporter robust z-score 0.96; fewer than 50 cells in well enough cells in well; inactive.

Targets above whose target name begins with P or p (2):
Ppp1r10 | Tnf reporter robust z-score: -1.03; fewer than 50 cells in well: enough cells in well; call: inactive
Pag1 | Tnf reporter robust z-score: -0.95; fewer than 50 cells in well: enough cells in well; call: inactive

Next records follow.
After knock-down of Akap19, the record shows fewer than 50 cells in well fewer than 50 cells per well; well left out of calls; inactive.
Against Scd3 the deposit lists Tnf reporter robust z-score 2.74; fewer than 50 cells in well enough cells in well; inactive.
Against U2af1, the entry reads fewer than 50 cells in well fewer than 50 cells per well; well left out of calls; inactive.
Depletion of Or2a7 gave: Tnf reporter robust z-score 1.55; fewer than 50 cells in well enough cells in well; inactive.
